Source: patent US20210032364A1
No constants are given. Whether binding was seen depends on the method and setting. Some entries that bind do so weakly or less than the wild type.

The chains behind the UniProt entries cited, without tags or fusion partners. Where a name states a change or a piece, a line headed by the entry shows the natural chain unless it says otherwise.
UniProt Q00987: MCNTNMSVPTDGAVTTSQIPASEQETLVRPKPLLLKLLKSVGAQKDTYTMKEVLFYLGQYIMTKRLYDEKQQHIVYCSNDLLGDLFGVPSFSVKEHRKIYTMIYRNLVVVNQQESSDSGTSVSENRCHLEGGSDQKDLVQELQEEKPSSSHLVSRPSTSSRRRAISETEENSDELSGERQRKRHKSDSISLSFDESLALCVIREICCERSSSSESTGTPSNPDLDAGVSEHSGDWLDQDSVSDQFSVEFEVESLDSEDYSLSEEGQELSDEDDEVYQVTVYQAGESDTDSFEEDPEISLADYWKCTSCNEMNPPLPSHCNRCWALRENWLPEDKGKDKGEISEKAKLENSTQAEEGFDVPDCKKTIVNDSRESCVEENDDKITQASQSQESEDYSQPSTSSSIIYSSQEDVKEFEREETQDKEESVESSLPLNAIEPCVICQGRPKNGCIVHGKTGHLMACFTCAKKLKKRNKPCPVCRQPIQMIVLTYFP
UniProt P23804: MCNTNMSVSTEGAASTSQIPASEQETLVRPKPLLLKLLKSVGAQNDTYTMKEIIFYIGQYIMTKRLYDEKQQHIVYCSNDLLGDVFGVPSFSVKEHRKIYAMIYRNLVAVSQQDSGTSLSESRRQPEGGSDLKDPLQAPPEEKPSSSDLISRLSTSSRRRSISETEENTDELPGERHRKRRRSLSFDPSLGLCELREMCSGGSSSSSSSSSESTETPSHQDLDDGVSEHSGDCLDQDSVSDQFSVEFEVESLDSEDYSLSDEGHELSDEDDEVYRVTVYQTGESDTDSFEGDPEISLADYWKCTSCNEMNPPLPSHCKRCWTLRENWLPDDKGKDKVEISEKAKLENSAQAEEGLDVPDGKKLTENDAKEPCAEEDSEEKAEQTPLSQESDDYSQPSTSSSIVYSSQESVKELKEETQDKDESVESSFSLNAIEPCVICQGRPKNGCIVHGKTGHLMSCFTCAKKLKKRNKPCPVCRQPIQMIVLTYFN

Assays:
[1] = molecular target: HDM2 on the plasma membrane of intact human cancer cells (human) (UniProt Q00987); experiment: cell-ELISA, 1 µg/mL, on intact MCF-7, HCC1806, MIA PaCa-2, OVCAR-3, OVCA.4, A2058 and 92.1 cells
[2] = molecular target: MDM2 on the plasma membrane of intact mouse cancer cells (mouse) (UniProt P23804); experiment: cell-ELISA on intact mouse cancer cells
[3] = molecular target: MDM2 on the plasma membrane of intact mouse cancer cells (mouse) (UniProt P23804); experiment: cell-ELISA, 1 µg/mL, on intact MC-38, LL/2 and Panc02 cells (FIG. 5)
[4] = molecular target: HDM2 on the plasma membrane of intact human cancer cells (human) (UniProt Q00987); experiment: cell-ELISA on intact MIA PaCa-2 cells, peptide competition
[5] = molecular target: HDM2 on the plasma membrane of intact human cancer cells (human) (UniProt Q00987); experiment: cell-ELISA on intact human cancer cells
[6] = molecular target: MDM2 on the plasma membrane of intact mouse cancer cells (mouse) (UniProt P23804); experiment: cell-ELISA on intact murine cancer cells
[7] = molecular target: MDM2 on the plasma membrane of intact mouse cancer cells (mouse) (UniProt P23804); experiment: cell-ELISA on intact rodent cancer cells
[8] = molecular target: HDM2 on the plasma membrane of intact human cancer cells (human) (UniProt Q00987); experiment: cell-ELISA on intact MIA PaCa-2 cells
[9] = molecular target: HDM2 on the plasma membrane of intact human cancer cells (human) (UniProt Q00987); experiment: cell-ELISA on intact EDTA-released MIAPaCa-2 cells
[10] = molecular target: MDM2 on the plasma membrane of intact mouse cancer cells (mouse) (UniProt P23804); experiment: cell-ELISA, 1 µg/mL, on intact MC-38, LL/2 and Panc02 cells (FIG. 4)
[11] = molecular target: HDM2 on the plasma membrane of intact human cancer cells (human) (UniProt Q00987); experiment: cell-ELISA, 1 µg/mL, on intact MCF-7, HCC1806, MIA PaCa-2, OVCAR-3, OVCA4, A2058 and 92.1 cells
[12] = molecular target: HDM2 on the plasma membrane of intact human cancer cells (human) (UniProt Q00987); experiment: cell-ELISA on intact MIA PaCa-2 cells, competition with recombinant HDM2
[13] = molecular target: MDM2 on the plasma membrane of intact mouse cancer cells (mouse) (UniProt P23804); experiment: cell-ELISA, 1 µg/mL, on intact MC-38, LL/2 and Panc02 cells (FIG. 3)

binding [1] | binding [2] | binding [3] | binding [4] | binding [5] | binding [6] | binding [7] | binding [8] | binding [9] | binding [10] | binding [11] | binding [12] | binding [13] | Binder
binds | binds | binds | binds | binds | binds | binds | – | – | – | – | – | – | monoclonal antibody NMC-303 (antibody, V domains shown) VH: QVQLQQPGAELVKPGASVKLSCKASGYTFTSYYMYWVKQRPGQGLEWIGGINPRNGGTNFNEKFKNKATLTADKSSTTAYMQLSSLTSEDSAVYYCTRSGYYAMDYWGQGTSVTVSS VL: DIQMTQTTSSLSASLGDRVTISCRASQDISNFLNWYQQKPDGTVKLLIYYTSRLHSGVPSRFSGSGSGTDYSLTISNLEQEDIATYFCQQGNTLPRTFGGGTKLEIK
binds | binds | – | binds | binds | binds | binds | binds | binds | binds | – | – | – | monoclonal antibody NMC-204 (antibody, IgG3, V domains shown) VH: EVQLQESGSVLVRPGASVKLSCKASGDTLSGSWMHWAMQRPGQGLEWIGEIHLNRGTTNYNEKFKGKATVTVDTSSSTAYVDLSSLTSEDSAVYYCARSPGFAYWGQGTLVTVSA VL: GIVMTQAAPSVPVTPGESVSISCRSSKSLLHSNGNSYLYWFLQRPGQSPQLLIYRMSNLASGVPDRFSGSGSGTAFTLRITRVEAEDVGVYYCMQHLEYPFTFGSGTKLEIK
– | binds | – | binds | binds | binds | binds | – | binds | – | binds | binds | binds | monoclonal antibody NMC-103 (antibody, IgG1, V domains shown) VH: EVQLQESGGGLVQPGGSLRLSCTTSGFTFTHYYMSWVRQPPGKALEWLGFIRNKAKGYTAEYSASVKGRFTISRDNSQSILYLQMNTLRPEDSATYYCARDIGDNWGQGTLVTVSS VL: DIVMTQAAFSNPVTLGTSASISCRSSKNLLHSNGITYLYWYLQRPGQSPQLLISRVSNLASGVPNRFSGSESGTDFTLRISRVEAEDVGVYFCAQLLELPYTFGGGTKLEIK
